Earlier results on one compound are cited in patent US7265155B2, “Treating a variety of pathological conditions, including spasticity and convulsions, by effecting a modulation of CNS activity with isovaleramide, isovaleric acid, or a related compound” (NBS Pharmaceuticals, Inc., priority 1996, dated 2007).

The series deals with GABA levels in the brains of mice. The note with it: reported in the literature; cited from earlier work.

In the case of `CC(C)CC(=O)O` [Isovaleric acid, isovaleric acid], the “GABA levels in the brains of mice” value is “slight increase in GABA levels”.
